Laboratory results: the supplement of paper PMC10849652
This is one part of the list.

Sequences of proteins named here, by UniProt entry; tags and fusion partners are left off. A change or cut given only in a name is not applied to a line headed by its entry.
UniProt Q8TDW0: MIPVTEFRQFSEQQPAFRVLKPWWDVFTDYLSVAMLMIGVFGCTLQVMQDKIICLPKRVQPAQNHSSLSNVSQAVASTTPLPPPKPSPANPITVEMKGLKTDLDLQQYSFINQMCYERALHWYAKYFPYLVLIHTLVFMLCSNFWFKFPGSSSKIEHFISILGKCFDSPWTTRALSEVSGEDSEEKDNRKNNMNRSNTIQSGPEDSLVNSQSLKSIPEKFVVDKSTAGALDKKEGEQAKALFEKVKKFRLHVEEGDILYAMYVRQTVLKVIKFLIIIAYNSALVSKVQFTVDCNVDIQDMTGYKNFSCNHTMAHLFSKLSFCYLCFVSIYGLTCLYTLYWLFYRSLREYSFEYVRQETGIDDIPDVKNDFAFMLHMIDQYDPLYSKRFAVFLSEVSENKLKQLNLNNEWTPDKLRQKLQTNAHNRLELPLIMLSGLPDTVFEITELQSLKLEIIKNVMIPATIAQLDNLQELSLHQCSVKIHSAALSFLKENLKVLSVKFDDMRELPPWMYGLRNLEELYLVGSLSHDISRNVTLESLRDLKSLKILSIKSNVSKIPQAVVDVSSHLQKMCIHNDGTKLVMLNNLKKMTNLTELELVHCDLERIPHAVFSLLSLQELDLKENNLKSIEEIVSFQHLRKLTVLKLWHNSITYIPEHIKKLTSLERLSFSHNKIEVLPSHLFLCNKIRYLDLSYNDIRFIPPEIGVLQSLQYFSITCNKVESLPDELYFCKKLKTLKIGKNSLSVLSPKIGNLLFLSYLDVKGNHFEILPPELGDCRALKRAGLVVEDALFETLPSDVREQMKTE
UniProt P62312: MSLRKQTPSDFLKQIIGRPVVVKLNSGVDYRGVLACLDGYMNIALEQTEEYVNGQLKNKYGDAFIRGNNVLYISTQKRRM
UniProt Q9BRT6: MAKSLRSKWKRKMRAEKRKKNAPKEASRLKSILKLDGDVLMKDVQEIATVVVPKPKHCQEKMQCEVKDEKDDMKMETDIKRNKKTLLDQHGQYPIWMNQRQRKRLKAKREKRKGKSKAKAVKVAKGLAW
UniProt Q96PV6, whole entry, looked up: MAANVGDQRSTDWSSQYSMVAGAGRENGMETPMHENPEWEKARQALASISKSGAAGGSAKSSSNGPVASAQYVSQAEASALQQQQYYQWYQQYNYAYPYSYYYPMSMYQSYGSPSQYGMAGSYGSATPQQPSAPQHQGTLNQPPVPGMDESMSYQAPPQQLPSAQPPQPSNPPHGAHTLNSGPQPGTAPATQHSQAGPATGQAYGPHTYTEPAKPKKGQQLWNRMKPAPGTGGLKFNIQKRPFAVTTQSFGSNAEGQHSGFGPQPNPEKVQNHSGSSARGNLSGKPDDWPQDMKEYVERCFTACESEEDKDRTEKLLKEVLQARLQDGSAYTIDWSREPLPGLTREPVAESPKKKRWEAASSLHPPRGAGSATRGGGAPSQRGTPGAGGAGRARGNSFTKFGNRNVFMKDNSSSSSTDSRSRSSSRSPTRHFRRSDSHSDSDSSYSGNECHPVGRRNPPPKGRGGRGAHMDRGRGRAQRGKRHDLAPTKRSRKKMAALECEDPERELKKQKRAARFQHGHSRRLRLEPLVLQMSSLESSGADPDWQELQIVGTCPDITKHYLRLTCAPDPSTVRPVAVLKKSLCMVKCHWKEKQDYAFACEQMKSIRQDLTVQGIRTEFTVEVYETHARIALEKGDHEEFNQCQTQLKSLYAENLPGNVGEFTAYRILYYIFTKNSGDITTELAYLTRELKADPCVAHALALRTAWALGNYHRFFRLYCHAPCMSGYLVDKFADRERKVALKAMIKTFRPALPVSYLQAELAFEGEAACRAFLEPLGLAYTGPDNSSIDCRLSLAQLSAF
UniProt Q9UIC8: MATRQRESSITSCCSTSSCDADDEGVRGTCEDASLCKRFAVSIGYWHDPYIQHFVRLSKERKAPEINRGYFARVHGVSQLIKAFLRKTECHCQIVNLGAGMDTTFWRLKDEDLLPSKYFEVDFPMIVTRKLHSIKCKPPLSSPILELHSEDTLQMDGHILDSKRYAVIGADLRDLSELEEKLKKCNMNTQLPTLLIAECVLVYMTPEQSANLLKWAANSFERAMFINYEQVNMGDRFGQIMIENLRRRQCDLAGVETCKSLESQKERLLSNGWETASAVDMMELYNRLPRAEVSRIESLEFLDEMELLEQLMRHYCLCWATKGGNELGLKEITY
UniProt Q96BZ8: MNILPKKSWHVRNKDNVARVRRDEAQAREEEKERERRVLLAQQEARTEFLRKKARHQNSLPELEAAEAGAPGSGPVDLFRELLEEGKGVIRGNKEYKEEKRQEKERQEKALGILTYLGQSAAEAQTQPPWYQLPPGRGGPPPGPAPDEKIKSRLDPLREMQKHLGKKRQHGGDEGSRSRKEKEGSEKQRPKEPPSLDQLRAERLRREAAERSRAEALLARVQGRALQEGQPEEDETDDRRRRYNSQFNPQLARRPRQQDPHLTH
UniProt Q9UK45: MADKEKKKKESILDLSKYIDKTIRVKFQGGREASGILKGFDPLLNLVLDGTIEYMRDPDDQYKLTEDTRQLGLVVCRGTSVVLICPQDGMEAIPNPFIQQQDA
UniProt Q9BQK8: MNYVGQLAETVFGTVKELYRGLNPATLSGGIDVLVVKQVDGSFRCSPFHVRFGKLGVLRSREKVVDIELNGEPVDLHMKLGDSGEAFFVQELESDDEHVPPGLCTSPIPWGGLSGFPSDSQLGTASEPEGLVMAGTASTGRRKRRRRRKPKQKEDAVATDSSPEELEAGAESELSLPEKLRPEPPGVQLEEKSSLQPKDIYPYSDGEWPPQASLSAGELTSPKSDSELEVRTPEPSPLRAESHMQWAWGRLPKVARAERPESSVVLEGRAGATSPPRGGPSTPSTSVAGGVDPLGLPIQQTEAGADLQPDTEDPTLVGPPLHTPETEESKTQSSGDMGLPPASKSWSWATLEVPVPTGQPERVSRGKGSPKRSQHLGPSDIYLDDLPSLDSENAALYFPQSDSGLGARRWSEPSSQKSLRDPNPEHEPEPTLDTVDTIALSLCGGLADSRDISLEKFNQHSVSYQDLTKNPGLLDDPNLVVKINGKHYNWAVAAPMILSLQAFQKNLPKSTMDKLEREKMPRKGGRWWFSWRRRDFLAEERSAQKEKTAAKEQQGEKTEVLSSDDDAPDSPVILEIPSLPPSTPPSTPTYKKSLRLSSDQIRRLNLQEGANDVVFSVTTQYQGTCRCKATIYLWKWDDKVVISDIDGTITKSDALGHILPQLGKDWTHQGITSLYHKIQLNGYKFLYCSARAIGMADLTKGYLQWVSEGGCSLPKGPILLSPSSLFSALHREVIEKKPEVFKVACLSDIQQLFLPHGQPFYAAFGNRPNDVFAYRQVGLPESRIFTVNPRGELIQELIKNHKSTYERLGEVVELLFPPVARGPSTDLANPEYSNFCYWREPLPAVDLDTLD
UniProt Q6P1M3: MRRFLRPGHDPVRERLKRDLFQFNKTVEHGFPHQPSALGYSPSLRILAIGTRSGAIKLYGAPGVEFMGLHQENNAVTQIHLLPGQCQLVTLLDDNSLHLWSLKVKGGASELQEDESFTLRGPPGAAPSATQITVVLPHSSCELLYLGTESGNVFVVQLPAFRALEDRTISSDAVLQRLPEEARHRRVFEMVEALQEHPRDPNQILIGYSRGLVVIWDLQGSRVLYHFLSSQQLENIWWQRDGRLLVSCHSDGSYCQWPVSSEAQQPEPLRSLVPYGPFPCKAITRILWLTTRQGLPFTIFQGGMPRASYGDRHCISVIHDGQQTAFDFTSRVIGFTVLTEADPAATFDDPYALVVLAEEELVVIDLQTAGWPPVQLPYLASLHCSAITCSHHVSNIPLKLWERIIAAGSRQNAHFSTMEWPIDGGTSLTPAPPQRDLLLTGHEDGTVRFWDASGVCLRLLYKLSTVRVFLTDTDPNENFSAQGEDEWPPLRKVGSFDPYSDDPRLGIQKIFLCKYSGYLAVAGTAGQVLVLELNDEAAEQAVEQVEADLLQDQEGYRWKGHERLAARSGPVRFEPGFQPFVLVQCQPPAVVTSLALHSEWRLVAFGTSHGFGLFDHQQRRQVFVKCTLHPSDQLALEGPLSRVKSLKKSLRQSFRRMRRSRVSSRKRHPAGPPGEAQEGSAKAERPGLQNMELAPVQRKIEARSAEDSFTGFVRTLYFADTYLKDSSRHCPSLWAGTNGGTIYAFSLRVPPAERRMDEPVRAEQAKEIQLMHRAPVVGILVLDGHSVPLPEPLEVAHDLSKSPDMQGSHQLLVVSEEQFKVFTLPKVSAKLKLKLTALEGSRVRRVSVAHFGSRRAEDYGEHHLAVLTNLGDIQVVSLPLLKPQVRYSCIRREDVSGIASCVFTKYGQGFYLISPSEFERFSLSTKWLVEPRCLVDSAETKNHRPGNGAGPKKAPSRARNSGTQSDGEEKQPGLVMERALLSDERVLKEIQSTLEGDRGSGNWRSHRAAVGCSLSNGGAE
UniProt Q8TCA0: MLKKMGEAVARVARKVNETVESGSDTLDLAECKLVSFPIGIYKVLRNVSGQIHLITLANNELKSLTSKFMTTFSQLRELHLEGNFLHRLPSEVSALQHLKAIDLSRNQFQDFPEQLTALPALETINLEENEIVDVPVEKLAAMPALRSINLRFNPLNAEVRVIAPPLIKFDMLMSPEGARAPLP
UniProt O60294: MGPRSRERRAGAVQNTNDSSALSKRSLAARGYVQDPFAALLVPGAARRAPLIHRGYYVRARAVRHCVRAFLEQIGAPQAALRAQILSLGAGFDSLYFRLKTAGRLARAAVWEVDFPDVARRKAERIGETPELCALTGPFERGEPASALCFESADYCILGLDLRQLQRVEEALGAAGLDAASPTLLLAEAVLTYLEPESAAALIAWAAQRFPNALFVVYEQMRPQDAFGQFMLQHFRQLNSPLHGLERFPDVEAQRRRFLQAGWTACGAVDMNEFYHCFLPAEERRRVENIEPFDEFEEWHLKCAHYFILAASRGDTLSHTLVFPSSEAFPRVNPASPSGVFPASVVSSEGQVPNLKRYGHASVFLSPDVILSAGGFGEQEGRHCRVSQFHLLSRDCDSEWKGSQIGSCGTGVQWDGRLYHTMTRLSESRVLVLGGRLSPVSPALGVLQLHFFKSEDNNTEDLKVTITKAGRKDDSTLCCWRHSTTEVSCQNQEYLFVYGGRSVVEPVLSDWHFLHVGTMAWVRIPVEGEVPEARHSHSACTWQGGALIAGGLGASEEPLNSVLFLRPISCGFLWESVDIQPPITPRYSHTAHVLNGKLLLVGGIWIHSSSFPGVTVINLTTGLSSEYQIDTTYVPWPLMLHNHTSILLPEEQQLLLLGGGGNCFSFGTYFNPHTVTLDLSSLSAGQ
UniProt Q9BX40: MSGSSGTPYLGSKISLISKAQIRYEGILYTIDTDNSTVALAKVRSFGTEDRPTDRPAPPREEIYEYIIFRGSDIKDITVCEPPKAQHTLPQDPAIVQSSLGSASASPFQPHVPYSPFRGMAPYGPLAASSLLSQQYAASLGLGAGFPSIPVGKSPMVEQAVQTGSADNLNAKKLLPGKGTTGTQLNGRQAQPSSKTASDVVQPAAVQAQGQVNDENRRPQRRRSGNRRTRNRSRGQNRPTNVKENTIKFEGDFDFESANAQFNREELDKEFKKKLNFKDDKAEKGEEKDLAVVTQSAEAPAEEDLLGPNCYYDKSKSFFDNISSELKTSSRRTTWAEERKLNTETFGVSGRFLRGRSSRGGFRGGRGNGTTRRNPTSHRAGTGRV
UniProt Q9H089: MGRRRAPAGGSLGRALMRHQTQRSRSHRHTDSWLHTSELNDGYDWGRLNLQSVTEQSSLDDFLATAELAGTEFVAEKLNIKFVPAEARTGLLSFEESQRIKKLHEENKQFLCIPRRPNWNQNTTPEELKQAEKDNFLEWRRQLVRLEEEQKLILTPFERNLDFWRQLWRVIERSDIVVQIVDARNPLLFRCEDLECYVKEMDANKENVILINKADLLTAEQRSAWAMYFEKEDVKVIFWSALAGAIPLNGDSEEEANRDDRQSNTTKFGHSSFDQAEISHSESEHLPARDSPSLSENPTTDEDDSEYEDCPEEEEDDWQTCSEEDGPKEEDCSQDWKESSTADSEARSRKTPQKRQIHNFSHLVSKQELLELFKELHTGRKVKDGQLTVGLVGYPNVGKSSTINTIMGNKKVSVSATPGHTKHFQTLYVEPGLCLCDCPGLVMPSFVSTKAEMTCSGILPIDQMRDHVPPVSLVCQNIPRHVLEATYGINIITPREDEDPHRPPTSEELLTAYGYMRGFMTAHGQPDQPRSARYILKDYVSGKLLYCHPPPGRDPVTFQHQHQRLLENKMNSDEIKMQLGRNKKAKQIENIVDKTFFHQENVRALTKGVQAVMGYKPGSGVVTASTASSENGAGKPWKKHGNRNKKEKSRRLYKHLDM

What was measured:
Assay in all cases: log2 fold change, soluble protein after heating vs DMSO (PISA); higher = thermal stabilisation; K562 lysate, 10 uM; active = over 0.2 and 3.5 SD of the protein, either way, in both replicates (recomputed)
nilotinib = compound: Cc1cn(-c2cc(NC(=O)c3ccc(C)c(Nc4nccc(-c5cccnc5)n4)c3)cc(C(F)(F)F)c2)cn1 [nilotinib]
Procedure, shortened: (§1)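 K562 pellets were dounce-homogenised in PBS pH 7.4 containing 1 mM MgCl2, and the crude extract, at 1 mg/mL protein, was exposed to 10 μM compound for 30 min. Aliquots were heated for 3 min across 48°C-58°C, pooled, brought to 0.5% NP-40 at 4°C and spun at 21,000xg for 90 min, with the supernatant taken as soluble protein. TMTpro 16plex LC-MS/MS with equalised channel sums quantified that protein. Values are log-two fold changes in thermal stability relative to solvent controls, taken from duplicates.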

[1] = compound: Cc1nc(Nc2n[nH]c3c2CN(C(=O)N[C@H](CN(C)C)c2ccccc2)C3(C)C)c2sccc2n1
Procedure, shortened: as §1

dasatinib = compound: Cc1nc(Nc2ncc(C(=O)Nc3c(C)cccc3Cl)s2)cc(N2CCN(CCO)CC2)n1 [dasatinib]
Procedure, shortened: as §1

[2] = compound: Cc1ncc(-c2ccnc(Nc3ccc(S(C)(=O)=O)cc3)n2)n1C(C)C
Procedure, shortened: as §1

[3] = compound: Cn1cc(-c2ccc3c(c2)CCN3C(=O)Cc2cccc(C(F)(F)F)c2)c2c(N)ncnc21
Procedure, shortened: as §1

quisinostat = compound: Cn1cc(CNCC2CCN(c3ncc(C(=O)NO)cn3)CC2)c2ccccc21 [quisinostat]
Procedure, shortened: as §1

tipifarnib = compound: Cn1cncc1[C@@](N)(c1ccc(Cl)cc1)c1ccc2c(c1)c(-c1cccc(Cl)c1)cc(=O)n2C [tipifarnib]
Procedure, shortened: as §1

[4] = compound: NC(=O)Nc1cc(-c2cccc(F)c2)sc1C(=O)N[C@H]1CCCNC1
Procedure, shortened: as §1

[5] = compound: NC(=O)c1cnc(N[C@@H]2CCCC[C@@H]2N)nc1Nc1cccc(-n2nccn2)c1
Procedure, shortened: as §1

[6] = compound: NC1(c2ccc(-c3nc4ccn5c(=O)[nH]nc5c4cc3-c3ccccc3)cc2)CCC1
Procedure, shortened: as §1

[7] = compound: NCC(=O)Nc1ccc(-n2nc(C(F)(F)F)cc2-c2ccc3c(ccc4ccccc43)c2)cc1
Procedure, shortened: as §1

vorinostat = compound: O=C(CCCCCCC(=O)Nc1ccccc1)NO [vorinostat]
Procedure, shortened: as §1

silmitasertib = compound: O=C(O)c1ccc2c(c1)nc(Nc1cccc(Cl)c1)c1ccncc12 [silmitasertib]
Procedure, shortened: as §1

[8] = compound: O=C1NC(=O)C(c2cnc3ccccn23)=C1c1cn2c3c(cc(F)cc13)CN(C(=O)N1CCCCC1)CC2
Procedure, shortened: as §1

entospletinib = compound: c1cn2cc(-c3ccc4cn[nH]c4c3)nc(Nc3ccc(N4CCOCC4)cc3)c2n1 [entospletinib]
Procedure, shortened: as §1

Measured: log2 fold change

LRRC8C (UniProt Q8TDW0)
inactive: nilotinib -0.148 | [1] 0.142 | dasatinib -0.064 | [2] 0.101 | [3] -0.063 | quisinostat -0.058 | tipifarnib 0.275 | [4] 0.011 | [5] -0.049 | [6] -0.032 | [7] 0.001 | vorinostat -0.05 | silmitasertib 0.005 | [8] -0.013 | entospletinib 0.075

LSM6 (UniProt P62312)
inactive: nilotinib 0.067 | [1] 0.006 | dasatinib 0.029 | [2] -0.015 | [3] -0.014 | quisinostat 0.113 | tipifarnib 0.031 | [4] -0.041 | [5] -0.054 | [6] 0.05 | [7] -0.061 | vorinostat 0.138 | silmitasertib -0.024 | [8] 0.025 | entospletinib 0.029

LLPH (UniProt Q9BRT6)
inactive: nilotinib 0.014 | [1] 0.025 | dasatinib -0.038 | [2] -0.006 | [3] 0.104 | quisinostat 0.146 | tipifarnib 0.032 | [4] 0.02 | [5] 0 | [6] -0.057 | [7] -0.06 | vorinostat 0.18 | silmitasertib -0.016 | [8] -0.039 | entospletinib -0.044

LENG8 (UniProt Q96PV6)
inactive: nilotinib -0.057 | [1] 0.02 | dasatinib 0.193 | [2] 0.064 | [3] -0.033 | quisinostat -0.051 | tipifarnib -0.022 | [4] 0.058 | [5] -0.027 | [6] -0.159 | [7] -0.033 | vorinostat 0.11 | silmitasertib 0.007 | [8] 0.064 | entospletinib 0.033

LCMT1 (UniProt Q9UIC8)
inactive: nilotinib -0.015 | [1] -0.006 | dasatinib -0.002 | [2] -0.023 | [3] 0.051 | quisinostat 0.037 | tipifarnib 0.014 | [4] -0.009 | [5] 0.016 | [6] 0.001 | [7] -0.063 | vorinostat 0.097 | silmitasertib 0.033 | [8] 0.009 | entospletinib -0.017

LRRC41 (UniProt Q15345)
inactive: nilotinib -0.01 | [1] 0.14 | dasatinib -0.005 | [2] -0.103 | [3] -0.103 | quisinostat -0.034 | tipifarnib 0.105 | [4] 0.196 | [5] 0.075 | [6] 0.024 | [7] -0.017 | vorinostat -0.36 | silmitasertib -0.085 | [8] -0.1 | entospletinib -0.021

LRCH4 (UniProt O75427)
inactive: nilotinib 0.16 | [1] 0.18 | dasatinib -0.072 | [2] 0.011 | [3] 0.041 | quisinostat -0.041 | tipifarnib -0.254 | [4] -0.002 | [5] -0.022 | [6] 0.025 | [7] 0.038 | vorinostat -0.33 | silmitasertib -0.005 | [8] -0.006 | entospletinib 0.032

LENG1 (UniProt Q96BZ8)
inactive: nilotinib -0.03 | [1] -0.19 | dasatinib 0.03 | [2] 0.063 | [3] 0.018 | quisinostat -0.069 | tipifarnib 0.01 | [4] 0.003 | [5] 0.048 | [6] 0.005 | [7] 0.049 | vorinostat 0.053 | silmitasertib 0.06 | [8] -0.002 | entospletinib -0.022

LSM7 (UniProt Q9UK45)
inactive: nilotinib 0.008 | [1] -0.005 | dasatinib -0.009 | [2] -0.012 | [3] -0.034 | quisinostat 0.011 | tipifarnib -0.013 | [4] -0.016 | [5] 0.006 | [6] -0.014 | [7] 0.019 | vorinostat 0.092 | silmitasertib 0 | [8] -0.019 | entospletinib 0.001

LPIN3 isoform 2 (UniProt Q9BQK8)
inactive: nilotinib -0.061 | [1] 0.059 | dasatinib -0.034 | [2] 0.023 | [3] 0.029 | quisinostat -0.053 | tipifarnib -0.038 | [4] 0.034 | [5] -0.095 | [6] 0.012 | [7] 0.074 | vorinostat -0.075 | silmitasertib 0.011 | [8] 0.013 | entospletinib 0.079

LLGL2 (UniProt Q6P1M3)
inactive: nilotinib 0.071 | [1] 0.156 | dasatinib 0.126 | [2] -0.069 | [3] -0.105 | quisinostat -0.102 | tipifarnib 0.125 | [4] 0.162 | [5] 0.07 | [6] 0.041 | [7] -0.102 | vorinostat 0.021 | silmitasertib -0.077 | [8] -0.062 | entospletinib -0.29

LEPR (UniProt P48357)
inactive: nilotinib -0.014 | [1] -0.01 | dasatinib -0.031 | [2] -0.003 | [3] 0.073 | quisinostat 0.051 | tipifarnib 0.046 | [4] -0.026 | [5] 0.042 | [6] 0.009 | [7] 0.034 | vorinostat 0.037 | silmitasertib 0.031 | [8] -0.015 | entospletinib -0.152

LRRC20 (UniProt Q8TCA0)
inactive: nilotinib 0.039 | [1] -0.034 | dasatinib 0.015 | [2] 0.008 | [3] 0.008 | quisinostat -0.017 | tipifarnib 0.079 | [4] -0.056 | [5] -0.013 | [6] 0.014 | [7] -0.178 | vorinostat 0.134 | silmitasertib 0.012 | [8] -0.098 | entospletinib -0.03

LPCAT3 (UniProt Q6P1A2)
inactive: nilotinib 0.013 | [1] -0.005 | dasatinib 0.074 | [2] 0.113 | [3] 0.043 | quisinostat -0.048 | tipifarnib -0.022 | [4] 0.184 | [5] -0.028 | [6] 0.012 | [7] 0.071 | vorinostat 0.013 | silmitasertib 0.006 | [8] -0.023 | entospletinib -0.138

LETMD1 isoform 7 (UniProt Q6P1Q0)
inactive: nilotinib 0.088 | [1] -0.028 | dasatinib -0.174 | [2] -0.038 | [3] 0.005 | quisinostat 0.007 | tipifarnib -0.06 | [4] -0.025 | [5] 0.009 | [6] 0.011 | [7] -0.083 | vorinostat -0.033 | silmitasertib 0.096 | [8] -0.021 | entospletinib 0.065

LDHA isoform 3 (UniProt P00338)
inactive: nilotinib -0.021 | [1] -0.004 | dasatinib 0.033 | [2] -0.044 | [3] -0.024 | quisinostat -0.015 | tipifarnib 0.022 | [4] -0.035 | [5] -0.024 | [6] 0.008 | [7] 0.01 | vorinostat 0.12 | silmitasertib 0.009 | [8] 0.004 | entospletinib 0.045

LAS1L (UniProt Q9Y4W2)
active: vorinostat -0.397
inactive: nilotinib -0.019 | [1] 0.008 | dasatinib 0.025 | [2] 0.029 | [3] -0.019 | quisinostat -0.083 | tipifarnib -0.013 | [4] 0.033 | [5] 0.044 | [6] -0.024 | [7] -0.008 | silmitasertib 0.01 | [8] -0.018 | entospletinib -0.075

Quoted at random: 2 entries already listed
LRRC20 (UniProt Q8TCA0)
inactive: nilotinib 0.039 | [1] -0.034 | dasatinib 0.015 | [2] 0.008 | [3] 0.008 | quisinostat -0.017 | tipifarnib 0.079 | [4] -0.056 | [5] -0.013 | [6] 0.014 | [7] -0.178 | vorinostat 0.134 | silmitasertib 0.012 | [8] -0.098 | entospletinib -0.03

LDHA isoform 3 (UniProt P00338)
inactive: nilotinib -0.021 | [1] -0.004 | dasatinib 0.033 | [2] -0.044 | [3] -0.024 | quisinostat -0.015 | tipifarnib 0.022 | [4] -0.035 | [5] -0.024 | [6] 0.008 | [7] 0.01 | vorinostat 0.12 | silmitasertib 0.009 | [8] 0.004 | entospletinib 0.045

The listing continues.

LCMT2 (UniProt O60294)
inactive: nilotinib -0.015 | [1] 0.007 | dasatinib -0.22 | [2] -0.056 | [3] 0.138 | quisinostat -0.009 | tipifarnib 0.118 | [4] 0.151 | [5] -0.004 | [6] -0.149 | [7] 0.021 | vorinostat -0.016 | silmitasertib -0.016 | [8] 0.04 | entospletinib 0.032

LSM14B (UniProt Q9BX40)
inactive: nilotinib -0.22 | [1] 0.007 | [2] -0.115 | quisinostat -0.142 | tipifarnib -0.251 | [4] -0.01 | [5] -0.056 | [6] 0.016 | vorinostat -0.115 | silmitasertib -0.196 | [8] -0.096

LSG1 (UniProt Q9H089)
inactive: nilotinib 0.003 | [1] 0.015 | dasatinib 0.102 | [2] 0.026 | [3] 0.137 | quisinostat -0.091 | tipifarnib -0.004 | [4] 0.115 | [5] -0.014 | [6] 0.032 | [7] -0.074 | vorinostat -0.052 | silmitasertib 0.043 | [8] 0.096 | entospletinib 0.139

LIMA1 isoform 4 (UniProt Q9UHB6)
inactive: nilotinib 0.032 | [1] 0.001 | dasatinib 0.033 | [2] -0.008 | [3] 0.007 | quisinostat 0.011 | tipifarnib 0.018 | [4] 0.013 | [5] 0.017 | [6] -0.008 | [7] 0.005 | vorinostat 0.038 | silmitasertib 0.013 | [8] 0.025 | entospletinib 0.033
